Test results reported in publication PMC7441392.
Results are given in words; binding and its absence hold for the method and conditions named. Binding seen in cells or lysates may run through a third protein. Some binding calls cover weakened binding; strength is not graded here. Values belong to the molecule of their own block, whether it stands above or below them.

By UniProt entry, the sequences of proteins in these tests, tags left out.
UniProt Q14457: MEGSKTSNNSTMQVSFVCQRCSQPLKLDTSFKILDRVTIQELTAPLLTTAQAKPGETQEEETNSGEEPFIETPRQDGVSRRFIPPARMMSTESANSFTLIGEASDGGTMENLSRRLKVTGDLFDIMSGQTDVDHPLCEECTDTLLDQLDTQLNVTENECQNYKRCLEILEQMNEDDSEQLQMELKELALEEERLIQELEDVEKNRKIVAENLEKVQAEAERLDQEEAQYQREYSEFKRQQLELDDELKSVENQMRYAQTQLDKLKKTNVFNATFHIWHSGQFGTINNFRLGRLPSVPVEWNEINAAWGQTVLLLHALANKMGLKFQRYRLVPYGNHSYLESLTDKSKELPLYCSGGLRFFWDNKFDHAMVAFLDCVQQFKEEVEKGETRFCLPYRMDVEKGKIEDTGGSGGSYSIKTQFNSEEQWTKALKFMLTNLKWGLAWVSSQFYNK
UniProt Q9JMA1: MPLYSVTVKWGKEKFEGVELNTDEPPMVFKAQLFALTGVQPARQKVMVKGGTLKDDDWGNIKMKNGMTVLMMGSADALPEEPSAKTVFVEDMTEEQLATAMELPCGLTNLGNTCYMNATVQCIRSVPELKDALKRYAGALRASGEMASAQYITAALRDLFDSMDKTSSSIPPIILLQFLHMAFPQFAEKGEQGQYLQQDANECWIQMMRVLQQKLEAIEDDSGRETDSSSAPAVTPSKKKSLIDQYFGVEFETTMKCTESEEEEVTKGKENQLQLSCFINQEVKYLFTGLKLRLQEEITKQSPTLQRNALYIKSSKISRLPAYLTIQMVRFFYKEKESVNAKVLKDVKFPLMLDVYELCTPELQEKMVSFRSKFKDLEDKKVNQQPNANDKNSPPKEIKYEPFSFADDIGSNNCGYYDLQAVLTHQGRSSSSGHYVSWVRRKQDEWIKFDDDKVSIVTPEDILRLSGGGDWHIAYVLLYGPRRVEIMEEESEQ
UniProt Q6PF93: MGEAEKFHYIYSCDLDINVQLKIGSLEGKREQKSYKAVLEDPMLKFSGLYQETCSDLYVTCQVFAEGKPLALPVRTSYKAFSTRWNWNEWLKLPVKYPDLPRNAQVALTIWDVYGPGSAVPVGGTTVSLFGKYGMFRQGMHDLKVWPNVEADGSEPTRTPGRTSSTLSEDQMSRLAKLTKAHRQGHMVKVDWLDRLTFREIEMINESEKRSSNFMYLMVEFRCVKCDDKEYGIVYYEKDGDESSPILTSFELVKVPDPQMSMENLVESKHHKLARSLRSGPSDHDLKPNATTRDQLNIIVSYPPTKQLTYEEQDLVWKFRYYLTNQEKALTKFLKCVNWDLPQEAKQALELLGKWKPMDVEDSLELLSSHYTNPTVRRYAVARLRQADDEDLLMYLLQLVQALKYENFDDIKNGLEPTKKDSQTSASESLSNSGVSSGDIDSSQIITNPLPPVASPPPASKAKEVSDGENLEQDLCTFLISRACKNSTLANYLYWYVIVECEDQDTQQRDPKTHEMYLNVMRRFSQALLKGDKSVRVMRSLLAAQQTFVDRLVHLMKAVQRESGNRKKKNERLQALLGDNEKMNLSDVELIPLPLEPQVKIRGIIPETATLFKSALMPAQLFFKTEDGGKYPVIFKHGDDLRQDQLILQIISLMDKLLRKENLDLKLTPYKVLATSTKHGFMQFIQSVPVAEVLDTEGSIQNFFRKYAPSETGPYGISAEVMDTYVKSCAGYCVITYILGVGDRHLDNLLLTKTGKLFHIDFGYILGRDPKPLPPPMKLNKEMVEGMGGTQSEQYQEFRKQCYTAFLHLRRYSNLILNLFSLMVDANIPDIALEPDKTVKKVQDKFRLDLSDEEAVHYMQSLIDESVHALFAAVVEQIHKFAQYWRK

Key:
[1] = biological target: T1, TRAF6 (TNF receptor associated factor 6) (mouse (endogenous in RAW264.7)) (UniProt P70196); test: co-IP; endogenous proteins in RAW264.7 cell lysates; cells incubated with S5 (5, 10, and 20 μM) or DMSO for 6 h; antibody at 4 °C overnight, protein A/G-agarose beads, western blot
T1 sequence: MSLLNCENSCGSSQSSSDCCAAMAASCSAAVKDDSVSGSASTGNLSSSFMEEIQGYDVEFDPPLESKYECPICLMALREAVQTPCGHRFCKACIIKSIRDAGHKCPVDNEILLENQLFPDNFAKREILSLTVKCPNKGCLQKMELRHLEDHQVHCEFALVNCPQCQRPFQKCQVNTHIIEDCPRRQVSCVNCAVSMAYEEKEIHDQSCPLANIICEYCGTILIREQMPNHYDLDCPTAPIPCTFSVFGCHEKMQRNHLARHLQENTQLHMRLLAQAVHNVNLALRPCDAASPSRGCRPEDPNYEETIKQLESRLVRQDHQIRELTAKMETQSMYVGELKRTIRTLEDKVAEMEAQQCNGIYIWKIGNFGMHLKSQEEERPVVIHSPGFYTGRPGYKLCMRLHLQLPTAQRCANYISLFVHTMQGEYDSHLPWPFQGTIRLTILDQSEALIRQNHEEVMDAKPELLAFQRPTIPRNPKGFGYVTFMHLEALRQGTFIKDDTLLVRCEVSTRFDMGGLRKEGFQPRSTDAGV

[2] = biological target: Flag-tagged Beclin1 (UniProt Q14457); test: co-IP; HEK293T cells transfected with tagged plasmids for 48 h, incubated with S5 for 6 h; western blot
[3] = biological target: Beclin1 (mouse (endogenous in RAW264.7)) (UniProt O88597); test: co-IP; endogenous proteins in RAW264.7 cell lysates; cells incubated with S5 (5, 10, and 20 μM) or DMSO for 6 h; antibody at 4 °C overnight, protein A/G-agarose beads, western blot
[4] = biological target: T2, Beclin1 (mouse (endogenous in RAW264.7)), O88597; test: as above; conditions: remark: other sources report otherwise
T2 chain: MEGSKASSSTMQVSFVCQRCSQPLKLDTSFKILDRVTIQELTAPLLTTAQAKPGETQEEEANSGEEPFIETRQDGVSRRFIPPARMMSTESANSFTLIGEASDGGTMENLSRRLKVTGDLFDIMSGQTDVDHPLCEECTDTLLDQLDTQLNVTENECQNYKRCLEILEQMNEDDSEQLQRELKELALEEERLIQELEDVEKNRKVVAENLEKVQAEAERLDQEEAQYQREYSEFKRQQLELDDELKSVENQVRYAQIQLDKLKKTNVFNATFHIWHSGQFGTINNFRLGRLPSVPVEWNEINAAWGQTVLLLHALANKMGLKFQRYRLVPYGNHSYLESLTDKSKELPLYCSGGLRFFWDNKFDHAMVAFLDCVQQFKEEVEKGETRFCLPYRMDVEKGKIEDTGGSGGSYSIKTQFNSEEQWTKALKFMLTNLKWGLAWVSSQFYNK

binding [1]: binds
Molecule: Beclin1 (from UniProt O88597 1-448)

binding [2]: binds
Molecule: HA-tagged Bcl2 (from UniProt P10415 1-239)

binding [1]: binds
Molecule: ubiquitin-specific proteases 14 (USP14) (from UniProt Q9JMA1 1-493) (enzyme)

binding [3]: binds
Molecule: class III PI3K (from UniProt Q6PF93 1-887)

binding [4]: binds
B1: Bcl2, P10417 1-236 (protein)
chain: MAQAGRTGYDNREIVMKYIHYKLSQRGYEWDAGDADAAPLGAAPTPGIFSFQPESNPMPAVHRDMAARTSPLRPLVATAGPALSPVPPVVHLTLRRAGDDFSRRYRRDFAEMSSQLHLTPFTARGRFATVVEELFRDGVNWGRIVAFFEFGGVMCVESVNREMSPLVDNIALWMTEYLNRHLHTWIQDNGGWDAFVELYGPSMRPLFDFSWLSLKTLLSLALVGACITLGAYLGHK
